# About 22,000 (6.9%) of roughly 320,000 compounds were called active. The inconclusive results got no clear call from the source; some entries with a clear call stand among them for comparison. Calls come from the whole dose curve; as a rule, active = well fitted inhibition curve with a large enough effect; inconclusive = small, poorly fitted or top-dose-only effect, or another doubt; inactive = no such curve, though single readings can be large or run the other way. Potencies beside an inconclusive call are fits to weak or partial responses and may not hold up.
# Assay: Primary qHTS for delayed death inhibitors of the malarial parasite plastid, 96 hour incubation
# Conditions: P. falciparum luciferase reporter growth; series mostly up to 28.7 µM; activity change, negative = inhibition: at the top concentration
# Text: The goal of this screen is to discover new antimalarial compounds that act by inhibiting the development of the apicoplast in the malarial parasite Plasmodium falciparum. The biochemical processes that make this organelle essential for erythrocytic stage parasites are not well understood. However, antibiotics such as azithromycin and tetracycline, which target the apicoplast translational machinery, have a potent antimalarial effect.
# We have developed a cell-based assay that measures parasite growth based on the expression of an integrated copy of a firefly luciferase reporter. To detect small molecules that cause this "delayed death" phenotype, erythrocytes infected with the luciferase-expressing parasites were incubated with compounds for either one or two generations, corresponding to 48 and 96 hours, respectively. Compounds that inhibit parasite growth in the second generation, but not the first, should be enriched in antimalarials that target the apicoplast. Growth inhibition is detected by a decrease in luciferase activity.
# Assay Provider: David Fidock and Eric Ekland, Columbia University
# Keywords: NIH Roadmap, MLPCN, MLI, MLSMR, qHTS, NCGC, qHTS, malaria, luciferase, viability
# Four microliters of infected erythrocytes (2% hematocrit, 0.05% parasitemia final concentration) in culture medium were dispensed and the plates incubated for 96 hours at 37 C in 5% CO2. Two microliters of luciferase detection reagent was added and luminescence was detected by a ViewLux (PerkinElmer) reader.
# % is set by controls: 0 for no effect and ±100 for the full control effect; potency is the fitted concentration of half-maximal effect.
SMILES,"activity change, negative = inhibition",Potency
CNS(=O)(=O)c1ccc2c(c1)NC(=O)C1CCCN21 (configuration not stated),inactive: -15.5%,
O=C(c1cccs1)n1cc(C(=S)N2CCOCC2)c2ccccc21,,"inconclusive: 0.0041 µM [inhibitor, full curve, poor fit]"
CC(=O)Nc1cccc(NC(=O)CSc2nnnn2C)c1,,"inconclusive: 16.5 µM [inhibitor, partial curve]"
CC1CCCN(c2ccc3nc4ccccc4c(=O)n3n2)C1 (configuration not stated),,"inconclusive: 10.4 µM [inhibitor, single point]"
CCOC(=O)c1ccc(NC(=O)C(=O)NCCc2ccc(OC)cc2)cc1,inactive: 26.2%,
COc1ccc(C(=O)/C=C/Nc2ccc(S(=O)(=O)Nc3cccc(C(C)=O)c3)cc2)cc1,,"inconclusive: 4.15 µM [inhibitor, single point]"
COc1ccc(-c2cc([C@H]3[C@@H]4C=CCC[C@@]4(C)C(=O)N3Cc3ccccc3)ccc2F)cc1OC,,"inconclusive: 18.5 µM [inhibitor, single point]"
CCOc1ccccc1NC(=O)C(=O)N/N=C/c1cc(Br)ccc1O,inactive: -25.6%,
CCCOc1ccc(/C(O)=C2/C(=O)C(=O)N(CCCN3CCOCC3)C2c2ccncc2)cc1 (configuration not stated),,"inconclusive: 1.65 µM [inhibitor, partial curve, poor fit]"
CCC(=O)N1CCc2cc(Br)cc(S(=O)(=O)NCCCN(CC)Cc3ccccc3)c21,inactive: 4.25%,
Nc1n[nH]c(=S)n1-c1ccc(Cl)cc1,,"inconclusive: 2.33 µM [inhibitor, full curve, poor fit]"
Cc1ccccc1OCc1nnc(SCC(=O)Nc2ccc(N3CCOCC3)cc2)n1C,,"inconclusive: 11.7 µM [inhibitor, single point]"
CCN(CC(=O)Nc1ccc(NC(C)=O)cc1)C(=O)Cc1ccc(Cl)c(Cl)c1,,"inconclusive: 0.0657 µM [inhibitor, full curve, poor fit]"
CS(=O)(=O)c1ccc2nc(NC(=O)Nc3ccc(Cl)cc3)sc2c1,,active: 1.17 µM
CCOc1ccc2c(O)csc2c1,inactive: -7.98%,
c1ccc(CCNC2=NCCCS2)cc1,,"inconclusive: 16.5 µM [inhibitor, partial curve, poor fit]"
Cc1c2c(nc3c(C(=O)NC4CCCCC4C)cnn13)CCCC2 (configuration not stated),,"inconclusive: 0.37 µM [inhibitor, partial curve, poor fit]"
Cc1cccc(C)c1NC(=O)c1cc(-c2ccccn2)nc2ccccc12,,"inconclusive: 10.4 µM [inhibitor, single point]"
Cc1oc2c(cc(NS(=O)(=O)c3ccc(F)cc3)c3ccccc32)c1C(=O)O,,active: 7.38 µM
CC(=O)Nc1ccc(/C=N/Nc2nncc3ccccc23)cc1,inactive: 149%,
CCC(C)CCCCNC1=NCCS1 (configuration not stated),,"inconclusive: 18.5 µM [inhibitor, single point]"
CN1CCN(c2ccc(S(=O)(=O)N3CCCCC3)cc2NC(=O)COc2ccc([N+](=O)[O-])cc2)CC1,,"inconclusive: 4.15 µM [inhibitor, partial curve]"
CC(C)N(Cc1c(O)ccc2c(=O)c(-c3ccc(Cl)cc3)coc12)C(C)C,inactive: -13.2%,

SMILES,"activity change, negative = inhibition",Potency
C=CCN1CC(C(=O)N(CCCN(C)C)C(=O)NCC)CC2c3cccc4[nH]cc(c34)CC21 (configuration not stated),,active: 10.7 µM
COc1ccccc1NS(=O)(=O)c1cc(NC(=O)C2CCC2)ccc1N1CCCCC1,,"inconclusive: 2.33 µM [inhibitor, full curve]"
Cn1nc([N+](=O)[O-])c(C(C#N)c2ccccn2)c(Cl)c1=O (configuration not stated),inactive: -33.2%,
CCCc1nn2c(=O)cc(CSCC(=O)Nc3nnc(C(C)C)s3)nc2s1,,active: 11.7 µM
C/C(N)=C(/C#N)C(=O)COC(=O)c1oc2ccccc2c1COC(C)C,,"inconclusive: 0.465 µM [inhibitor, partial curve, poor fit]"
COc1cc(NC(=O)[C@H](C)NC(=O)N2CCn3c2nc2ccccc23)cc(OC)c1,,"inconclusive: 13.1 µM [inhibitor, single point]"
CCN(CC)C(=O)CSc1nc(N)c(C#N)c(-c2cccs2)c1C#N,,"inconclusive: 18.5 µM [inhibitor, single point]"
CCOC(=O)C1=C(C)NC(=O)NC1c1ccc(NC(C)=O)cc1 (configuration not stated),inactive: 5.89%,
CCN(CC(=O)Nc1c(C(=O)OC)[nH]c2ccccc12)c1ccc2c(c1)OCO2,,"inconclusive: 8.28 µM [inhibitor, partial curve, poor fit]"
COc1ccc(S(=O)(=O)N2CCC(C(=O)N[C@@H](C)C(=O)NCc3ccncc3)CC2)cc1,,"inconclusive: 18.5 µM [inhibitor, single point]"
Cc1cc(C)cc(S(=O)(=O)c2cnc3ccccc3n2)c1,,"inconclusive: 10.4 µM [inhibitor, single point]"
CN1N=C(C(C)(C)C)CSC1=Nc1ccccc1,inactive: 14.6%,
Cc1cccc(OCc2nnc(SC(C)C(=O)O)n2Cc2ccccc2)c1 (configuration not stated),,"inconclusive: 18.5 µM [inhibitor, single point]"
COc1ccc(N(CC(=O)NC(C)(C)C)S(=O)(=O)c2ccccc2)cc1OC,,"inconclusive: 18.5 µM [inhibitor, single point]"
COCCOc1cc(N2C(=O)CSCC2=O)c(Cl)cc1Cl,,"inconclusive: 4.15 µM [inhibitor, single point]"
NNC(=O)c1sc2cc(C(F)(F)F)cnc2c1-c1cccnc1,,"inconclusive: 4.15 µM [inhibitor, partial curve, poor fit]"
c1ccc(N2CCN(Cc3cn4ccccc4n3)CC2)cc1,,"inconclusive: 18.5 µM [inhibitor, single point]"
C=CCN(c1ccccc1)S(=O)(=O)c1cccc(C(=O)N2CC(C)CC(C)C2)c1 (configuration not stated),,"inconclusive: 18.5 µM [inhibitor, single point]"
CC(=O)NC(Cc1cccc(F)c1)C(=O)NC1CCN(C(=O)Nc2ccc(C)cc2)CC1 (configuration not stated),,"inconclusive: 9.28 µM [inhibitor, single point]"
COc1ccc(N2CCN(CCCNC(=O)CCC(=O)N3CCOc4ccc(Cl)cc43)CC2)cc1,,"inconclusive: 18.5 µM [inhibitor, single point]"
COc1ccccc1N(C)S(=O)(=O)c1ccc(C)c(C(=O)NC(C)c2ccccn2)c1 (configuration not stated),,"inconclusive: 18.5 µM [inhibitor, single point]"
C=CCn1c(NCc2cc(Cl)ccc2O)nc2ccccc21,,"inconclusive: 18.5 µM [inhibitor, single point]"
O=C(Nc1ccc(F)cc1)C1CCCO1 (configuration not stated),inactive: 12.5%,
COC(=O)C(CCSC)NC(=O)C(NC(=O)C1CCC(C)CC1)C(C)C (configuration not stated),,active: 2.33 µM

# Complete entries as entered above.
# CCN(CC)C(=O)CSc1nc(N)c(C#N)c(-c2cccs2)c1C#N as listed: Potency: inconclusive: 18.5 µM [inhibitor, single point]
# CCN(CC(=O)Nc1c(C(=O)OC)[nH]c2ccccc12)c1ccc2c(c1)OCO2 as listed: Potency: inconclusive: 8.28 µM [inhibitor, partial curve, poor fit]
# O=C(Nc1ccc(F)cc1)C1CCCO1 (configuration not stated) as listed: activity change, negative = inhibition: inactive: 12.5%

# The list goes on:

SMILES,"activity change, negative = inhibition",Potency
CCCCCCCCCCCCOCCOCCOCCOCCOCCOCCOCCOCCOCCO,,active: 10.7 µM
Fc1ccccc1NC(=S)NCc1ccc(Cl)cc1,,"inconclusive: 18.5 µM [inhibitor, single point]"
CCCS(=O)(=O)N1CCCC(C(=O)NCCCN2CCN(c3cccc(Cl)c3)CC2)C1 (configuration not stated),,"inconclusive: 0.147 µM [inhibitor, full curve, poor fit]"
C=CCn1c(SCC(=O)Nc2ccc3c(c2)OCO3)nc2ccccc2c1=O,inactive: -29.7%,
COc1cc2c(C(=O)NCc3ccccn3)cn(CC(C)C)c(=O)c2cc1OC,,active: 13.1 µM
O=C(O)c1cc(=O)[nH]c2c(Cl)cccc12,,"inconclusive: 13.1 µM [inhibitor, single point]"
Cc1ccc(NC(=O)CNc2ccccc2N2CCCC2=O)cc1S(=O)(=O)N1CCOCC1,,"inconclusive: 18.5 µM [inhibitor, single point]"
CCSc1nc(N)c2c(C)c(C)sc2n1,inactive: -24.3%,
CN(/N=C/c1cc(Cl)cc(Cl)c1O)c1c(Cl)cccc1[N+](=O)[O-],inactive: -32.4%,
Cc1ccc(N(Cc2ccccc2)C(=O)c2cc(S(=O)(=O)N3CCOCC3)ccc2Cl)cc1,,active: 13.1 µM
Cc1ccc(N(C(=O)Cc2cccs2)C(C(=O)NC2CCCCC2)c2ccccn2)cc1C (configuration not stated),,active: 4.15 µM
CSc1ccc(Cl)c(C(=O)NC2CCCC2)c1,inactive: -0.908%,
Cn1c(COc2ccccc2)nnc1SCc1nc2ccccc2[nH]1,,active: 1.47 µM
O=C(C1CCN(S(=O)(=O)c2ccc(F)cc2)CC1)N1CCOCC1,,active: 7.38 µM
OCCCCNCc1cc(Br)ccc1OCc1ccccc1,inactive: -5.82%,
O=P(O)(O)Cc1ccccc1OP(=O)(c1ccccc1)c1ccccc1,,"inconclusive: 0.0029 µM [inhibitor, full curve, poor fit]"
COc1cc(C(=O)NCC(=O)NC(C)CCc2ccccc2)cc(OC)c1OC (configuration not stated),inactive: -4.58%,
CCCC(C)C1(CC)C(=O)NC(=S)NC1=O (configuration not stated),,"inconclusive: 3.38 µM [inhibitor, partial curve]"
COC(=O)C1=C(c2ccc3ccccc3c2)C[C@@H]2CC[C@H]1N2C(=O)NC1CC1,,"inconclusive: 0.104 µM [inhibitor, full curve, poor fit]"
CCN(CC)S(=O)(=O)c1cccc(C(=O)Nc2ccccc2)c1,inactive: -28%,
CCOc1ccc(OCc2ccc(C(=O)Nc3ccc(Cl)cn3)o2)cc1,inactive: -5.19%,
CCOc1ccc(S(=O)(=O)N2CCCCC2)cc1NC(=O)CN1C(=O)NC(C)(c2ccc(C)cc2)C1=O (configuration not stated),,active: 7.38 µM
CN(CCOC(=O)c1ccco1)Cc1ccccc1,,"inconclusive: 0.0928 µM [inhibitor, full curve, poor fit]"
C/C(=N\NC(=O)c1ccccc1)c1c(O)n(Cc2ccccc2)c(=O)[nH]c1=O,inactive: 18.4%,

# Source: PubChem BioAssay AID504834 (National Center for Advancing Translational Sciences (NCATS), 2011)
